Results taken from the supplement of paper PMC10338343.
± gives the standard deviation. Only a part is listed here, and it is no random draw. Many of these values have a large error.

Test system: MIWI (PIWIL1) piRISC loaded with L1MC piRNA (30 nt)
Test: pre-steady-state target cleavage rate (min^-1); MIWI and MILI are mouse PIWI proteins and EfPiwi is from a freshwater sponge; tags in brackets are library labels; higher = faster piRNA-guided slicing of the target
Settings: guide: L1MC piRNA 5'p-UAACUAAAUACUAUGCAAGCUGUAGGUCCU
Method in brief: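 In Cleave-'n-Seq, a transcribed, DNA-blocked target RNA library (0.1 nM) was combined with 1 nM active affinity-purified piRISC bearing one synthetic guide, with or without 500 nM GTSF1 partner protein. Reactions ran in HEPES–potassium acetate buffer at 33 °C for 0–8 or 0–960 min. Uncleaved targets were sequenced and normalised to depth and to weakly complementary targets, three trials were pooled, and k3 was capped at 0.0001 min^-1. The pre-steady-state cleavage rate was obtained by fitting a burst-and-steady-state model.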

[1] = auxiliary factor: none (no GTSF1)
[2] = auxiliary factor: 500 nM mouse GTSF1

## UCCACCUACAGCUUGCAUACAUUUUAGAAA
[1]
  pre-steady-state target cleavage rate: 0.000272 ± 0.011

## UCGACCUACAGCUUCGUUAGUAUUUAGUUA
[1]
  pre-steady-state target cleavage rate: 0.000866 ± 0.0034

## UCCUGGAACAGCUUGCAUAGAUUUUACAAA
[1]
  pre-steady-state target cleavage rate: 0.000592 ± 0.0069

## UCCUCCUACAGGUUGCAUAGUAUUUACAAA
[1]
  pre-steady-state target cleavage rate: 0.00132 ± 0.0048

## UCCUCCUACAGCUUGCCAUAGUAUUUAGUUA
[1]
  pre-steady-state target cleavage rate: 0.00159 ± 0.0039

## UCCUGGUACAGGAUGCAUAGUAUUUAGUAA
[1]
  pre-steady-state target cleavage rate: 0.00173 ± 0.003

## AGGACCUACAGCUUGCAUAGUAAAAUCAAA
[1]
  pre-steady-state target cleavage rate: 0.000912 ± 0.0089

## UCCACCUACAGCUUGCCAUAGUAUUUAGUUA
[1]
  pre-steady-state target cleavage rate: 0.00156 ± 0.0048

## UCCACCUACAGCUUGCAUAGUUUUUAGAAA
[1]
  pre-steady-state target cleavage rate: 0.00261 ± 0.0038

## UGGACCUACAGGAAGCAUAGUAUUUUCAAA
[1]
  pre-steady-state target cleavage rate: 0.000632 ± 0.0071

## UGGACCUACAGCUUGCAAUCUAUUUAGUAA
[1]
  pre-steady-state target cleavage rate: 0.00132 ± 0.0035

## UCCACCUACAGCUUGCUUAGUAUUUAGAAA
[1]
  pre-steady-state target cleavage rate: 0.00213 ± 0.003

## AGGACCUACAGCUUGCAUACUAUUUUCAAA
[1]
  pre-steady-state target cleavage rate: 0.00199 ± 0.0041

## UCCUGGAUGUCGAACGUUAGUAUUUUCUUA
[2]
  pre-steady-state target cleavage rate: 0.000141 ± 0.035

## UCCACCUACACGUUGCAUAGUAUUUAGAAA
[1]
  pre-steady-state target cleavage rate: 0.000486 ± 0.0054

## UCGACCUACAGCUUGCAUAGUAUUAUGAAA
[1]
  pre-steady-state target cleavage rate: 0.00221 ± 0.003

## UGGACCUACAGCUACGAUAGUAUUUAGUAA
[1]
  pre-steady-state target cleavage rate: 0.000522 ± 0.0079

## AGGACCUACAGCUUGCAUAGAUAUUACAAA
[1]
  pre-steady-state target cleavage rate: 0.000743 ± 0.011

## AGGACCAACAGCUUGGAUAGUAUUUAGUUA
[2]
  pre-steady-state target cleavage rate: 1.41 ± 0.059

## UCCUGGAACAGCUUGCAAUCAUAAAUCAAA [g14:g23:cont:t1A]
[1]
  pre-steady-state target cleavage rate: 0.000215 ± 0.016

## UCCACCUACAGCUUCCAUAGUUUUUAGUUA
[1]
  pre-steady-state target cleavage rate: 0.00124 ± 0.0037

## UCCUGGAUGUCGAUGGAUAGUAAUUAGUUA
[1]
  pre-steady-state target cleavage rate: 0.000469 ± 0.017

## UGGACCUACAGCUUGCAUUCAAUUUAGUAA
[1]
  pre-steady-state target cleavage rate: 0.000494 ± 0.0093

## UCGACCUACAGCUUGCAAUCUAUUUAGUAA
[1]
  pre-steady-state target cleavage rate: 0.00174 ± 0.0031
